# Data source: PubChem BioAssay AID1259285 (Sanger Institute, 2017)
# Aim: 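Kinases needed for HCC56 growth and kinases whose loss boosts drug effects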 (primary screen)
# System: human HCC56 colorectal cancer cells
# Reagents: siRNA pool against human genes
# Challenge: DMSO vehicle, or anchor drug BYL719 at 1 µM, cetuximab at 5 µg/ml, or trametinib at 10 nM
# Measurement: 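Viability as a ratio to non-targeting pool wells, averaged over replicates and turned into a robust z-score; synergy scores with BYL719, cetuximab or trametinib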
# Direction: viability robust z-score, no drug: higher = more viable cells, weaker knock-down effect; viability vs non-targeting pool, no drug: higher = more viable cells; synergy score with BYL719: higher = stronger combined killing with BYL719; synergy score with cetuximab: higher = stronger combined killing with cetuximab; synergy score with trametinib: higher = stronger combined killing with trametinib
# Call rule: 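Essential when the drug-free viability robust z-score falls below -3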
# Calls: active = essential without drug; inactive = no change without drug
# The deposit covers 794 reagents; below is an unselected part. 20 of all reagents (2.5%) count as active. 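Calls rest on the drug-free arm alone and ignore synergy scores; viability ratios seem to be capped at 1.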 Reagent sequences are not shown. Not stated in the record: the amount of reagent, the time to read-out.
gene,"viability robust z-score, no drug","viability vs non-targeting pool, no drug",synergy score with BYL719,synergy score with cetuximab,synergy score with trametinib,Call
PDK3 (pyruvate dehydrogenase kinase 3),0.149,0.973,-0.112,-0.0121,0.103,inactive
TRIB2 (tribbles pseudokinase 2),0.458,1,-0.0277,-0.0426,0.105,inactive
PKM (pyruvate kinase M1/2),-0.605,0.909,0.128,0.0758,0.0191,inactive
CSNK1D (casein kinase 1 delta),0.458,1,0.022,-0.0161,0.00911,inactive
"RAF1 (Raf-1 proto-oncogene, serine/threonine kinase)",-1.76,0.81,0.0747,0.113,0.00902,inactive
AKT2 (AKT serine/threonine kinase 2),-0.545,0.914,0.0754,-0.00318,0.107,inactive
DYRK2 (dual specificity tyrosine phosphorylation regulated kinase 2),-0.234,0.941,0.0365,0.08,0.199,inactive
CDK4 (cyclin dependent kinase 4),0.458,1,-0.0364,0.00454,0.057,inactive
COMMD3 (COMM domain containing 3),0.458,1,-0.118,-0.142,0.011,inactive
PRKCZ (protein kinase C zeta),0.458,1,-0.124,-0.142,0.0247,inactive
MAP3K19 (mitogen-activated protein kinase kinase kinase 19),-1.49,0.833,-0.0177,0.0444,0.0583,inactive
ULK3 (unc-51 like kinase 3),0.458,1,-0.125,-0.142,-0.11,inactive
PTK7 (protein tyrosine kinase 7 (inactive)),-0.755,0.896,0.0944,0.108,0.0668,inactive
"GUCY2EP (guanylate cyclase 2E, pseudogene)",0.458,1,0.107,0.0357,0.127,inactive
MKNK1 (MAPK interacting serine/threonine kinase 1),0.458,1,-0.0339,-0.142,-0.00443,inactive
RBKS (ribokinase),0.458,1,-0.162,-0.142,-0.176,inactive
STK24 (serine/threonine kinase 24),0.458,1,0.0182,0.0471,0.101,inactive
CMPK1 (cytidine/uridine monophosphate kinase 1),0.458,1,-0.145,-0.0252,-0.0376,inactive
"PFKFB3 (6-phosphofructo-2-kinase/fructose-2,6-biphosphatase 3)",-0.0941,0.953,0.0503,0.13,0.0749,inactive
CDKL5 (cyclin dependent kinase like 5),0.458,1,-0.162,-0.0732,0.0307,inactive
TK2 (thymidine kinase 2),0.458,1,-0.162,-0.142,-0.1,inactive
SKAP1 (src kinase associated phosphoprotein 1),0.458,1,-0.162,-0.142,-0.103,inactive
MAK (male germ cell associated kinase),0.458,1,-0.127,0.0388,0.0186,inactive
DLG4 (discs large MAGUK scaffold protein 4),0.458,1,-0.162,-0.142,-0.11,inactive
IKBKB (inhibitor of nuclear factor kappa B kinase subunit beta),0.458,1,-0.0474,-0.142,0.0504,inactive
MAP4K5 (mitogen-activated protein kinase kinase kinase kinase 5),-1.01,0.874,-0.0112,-0.0698,-0.0139,inactive
TLK1 (tousled like kinase 1),0.186,0.977,0.178,0.19,0.236,inactive
MGA (MAX dimerization protein MGA),0.139,0.973,0.0159,0.03,0.145,inactive
"PIM1 (Pim-1 proto-oncogene, serine/threonine kinase)",0.458,1,0.108,-0.0872,0.175,inactive
PRKCH (protein kinase C eta),-1.89,0.798,-0.0682,-0.224,-0.0345,inactive
ALDH18A1 (aldehyde dehydrogenase 18 family member A1),0.458,1,0.0105,0.0621,0.0956,inactive
NTN4 (netrin 4),-0.624,0.907,-0.156,-0.062,0.0911,inactive
TRIB3 (tribbles pseudokinase 3),0.458,1,-0.162,-0.142,-0.048,inactive
DYRK1A,0.42,0.997,0.00783,0.0643,-0.0128,inactive
TCF7L2 (transcription factor 7 like 2),0.458,1,-0.162,-0.142,-0.344,inactive
MPP1 (MAGUK p55 scaffold protein 1),0.458,1,-0.0177,-0.105,-0.00857,inactive
ITPKB (inositol-trisphosphate 3-kinase B),0.458,1,-0.146,-0.142,-0.131,inactive
PRKAG1 (protein kinase AMP-activated non-catalytic subunit gamma 1),0.458,1,-0.127,-0.142,0.156,inactive
TGFBR2 (transforming growth factor beta receptor 2),0.458,1,-0.0175,-0.0528,0.0708,inactive
PDK4 (pyruvate dehydrogenase kinase 4),0.458,1,-0.0272,-0.00765,-0.0224,inactive
PIP5K1B (phosphatidylinositol-4-phosphate 5-kinase type 1 beta),0.458,1,0.0953,-0.128,0.0768,inactive
"RELA (RELA proto-oncogene, NF-kB subunit)",0.458,1,-0.00799,0.0156,-0.0101,inactive
RPS6KA5 (ribosomal protein S6 kinase A5),-0.915,0.882,0.0534,0.0554,0.0779,inactive
CKB (creatine kinase B),0.458,1,-0.162,-0.142,-0.179,inactive
PKIA (cAMP-dependent protein kinase inhibitor alpha),0.458,1,-0.162,-0.142,-0.0994,inactive
ERN2 (endoplasmic reticulum to nucleus signaling 2),0.458,1,-0.144,-0.142,-0.0782,inactive
TSSK6 (testis specific serine kinase 6),-0.915,0.882,-0.00923,0.0712,0.0458,inactive
PMVK (phosphomevalonate kinase),-1.22,0.856,-0.0185,0.0284,-0.045,inactive
SIK2 (salt inducible kinase 2),-3.12,0.693,-0.0583,-0.0579,-0.142,active
PTGS1 (prostaglandin-endoperoxide synthase 1),0.211,0.979,0.122,0.209,0.0733,inactive
PRKCB (protein kinase C beta),-0.621,0.907,0.0743,0.0212,0.0222,inactive
SLK (STE20 like kinase),0.458,1,-0.162,-0.142,-0.05,inactive
POMK (protein O-mannose kinase),0.458,1,-0.162,-0.142,-0.0701,inactive
BMPR2 (bone morphogenetic protein receptor type 2),-0.0255,0.958,0.0545,0.0971,0.0144,inactive
STRADA (STE20 related adaptor alpha),0.458,1,-0.0237,-0.142,0.00214,inactive
CDK19 (cyclin dependent kinase 19),0.323,0.988,0.051,-0.018,0.203,inactive
MAP3K10 (mitogen-activated protein kinase kinase kinase 10),0.458,1,-0.162,-0.142,-0.07,inactive
PAPSS2 (3'-phosphoadenosine 5'-phosphosulfate synthase 2),0.458,1,-0.118,-0.142,-0.243,inactive
KSR2 (kinase suppressor of ras 2),-2.28,0.765,-0.205,-0.0608,-0.196,inactive
SIK1 (salt inducible kinase 1),0.458,1,-0.0324,0.0688,0.0757,inactive
TPD52L3 (TPD52 like 3),0.458,1,-0.162,-0.142,0.0444,inactive
"KRAS (KRas proto-oncogene, GTPase)",-4.68,0.559,-0.0286,0.0574,-0.00756,active
ASPM (assembly factor for spindle microtubules),0.458,1,-0.132,-0.142,-0.134,inactive
